This is one part of the list. The data scatter; read single values as rough.

Chains of the proteins cited; added tags and fusions are not shown. Lines headed by an entry give the natural chain unless they say otherwise; changes in a name come on top. Residues count along the entry.
UniProt Q16537: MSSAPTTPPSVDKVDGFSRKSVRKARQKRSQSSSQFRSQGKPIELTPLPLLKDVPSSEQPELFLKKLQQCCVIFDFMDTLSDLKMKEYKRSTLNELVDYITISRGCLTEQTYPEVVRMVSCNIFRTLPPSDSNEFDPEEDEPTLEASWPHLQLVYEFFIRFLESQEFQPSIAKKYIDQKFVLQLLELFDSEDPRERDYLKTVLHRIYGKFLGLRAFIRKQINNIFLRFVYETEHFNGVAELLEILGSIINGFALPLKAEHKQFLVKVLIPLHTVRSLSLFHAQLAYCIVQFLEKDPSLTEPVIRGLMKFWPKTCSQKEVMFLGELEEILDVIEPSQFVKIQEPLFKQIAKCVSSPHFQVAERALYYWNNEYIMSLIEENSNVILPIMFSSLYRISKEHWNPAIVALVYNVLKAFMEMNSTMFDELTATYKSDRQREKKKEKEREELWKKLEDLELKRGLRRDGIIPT
UniProt Q5H9R7: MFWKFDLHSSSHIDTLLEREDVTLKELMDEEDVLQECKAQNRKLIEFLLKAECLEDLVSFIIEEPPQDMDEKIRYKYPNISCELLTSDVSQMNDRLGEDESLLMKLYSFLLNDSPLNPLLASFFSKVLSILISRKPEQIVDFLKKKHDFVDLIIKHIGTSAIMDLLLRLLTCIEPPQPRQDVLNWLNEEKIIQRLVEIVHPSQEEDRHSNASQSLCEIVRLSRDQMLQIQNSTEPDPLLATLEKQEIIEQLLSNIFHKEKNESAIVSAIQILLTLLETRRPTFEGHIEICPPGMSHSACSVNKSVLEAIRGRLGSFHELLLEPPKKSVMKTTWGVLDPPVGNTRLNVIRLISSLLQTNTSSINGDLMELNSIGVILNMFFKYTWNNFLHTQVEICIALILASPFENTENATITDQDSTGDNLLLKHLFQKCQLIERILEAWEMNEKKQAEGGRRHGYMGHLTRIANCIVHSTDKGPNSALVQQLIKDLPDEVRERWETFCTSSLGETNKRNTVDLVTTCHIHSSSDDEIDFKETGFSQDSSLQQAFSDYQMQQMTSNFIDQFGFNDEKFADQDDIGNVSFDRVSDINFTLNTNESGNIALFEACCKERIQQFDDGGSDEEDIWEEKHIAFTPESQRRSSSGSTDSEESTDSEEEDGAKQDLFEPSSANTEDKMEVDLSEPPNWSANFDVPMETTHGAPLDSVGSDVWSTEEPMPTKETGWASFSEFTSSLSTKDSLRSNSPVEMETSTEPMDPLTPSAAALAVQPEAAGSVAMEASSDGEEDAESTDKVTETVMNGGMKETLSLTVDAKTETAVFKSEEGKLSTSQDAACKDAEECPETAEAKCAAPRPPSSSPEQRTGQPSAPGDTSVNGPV
UniProt P42785: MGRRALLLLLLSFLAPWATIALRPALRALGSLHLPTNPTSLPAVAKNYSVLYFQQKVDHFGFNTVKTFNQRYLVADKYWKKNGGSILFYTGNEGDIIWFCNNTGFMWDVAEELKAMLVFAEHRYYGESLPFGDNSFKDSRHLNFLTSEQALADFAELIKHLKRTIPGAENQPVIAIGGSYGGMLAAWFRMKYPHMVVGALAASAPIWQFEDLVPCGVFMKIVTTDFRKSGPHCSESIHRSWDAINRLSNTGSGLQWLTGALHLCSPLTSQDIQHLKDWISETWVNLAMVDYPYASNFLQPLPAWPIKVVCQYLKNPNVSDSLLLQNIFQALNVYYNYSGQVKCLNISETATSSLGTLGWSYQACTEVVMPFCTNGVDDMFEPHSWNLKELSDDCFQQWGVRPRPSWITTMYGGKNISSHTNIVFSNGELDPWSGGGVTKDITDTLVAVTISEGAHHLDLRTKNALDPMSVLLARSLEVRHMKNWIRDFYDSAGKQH
UniProt Q8TF05: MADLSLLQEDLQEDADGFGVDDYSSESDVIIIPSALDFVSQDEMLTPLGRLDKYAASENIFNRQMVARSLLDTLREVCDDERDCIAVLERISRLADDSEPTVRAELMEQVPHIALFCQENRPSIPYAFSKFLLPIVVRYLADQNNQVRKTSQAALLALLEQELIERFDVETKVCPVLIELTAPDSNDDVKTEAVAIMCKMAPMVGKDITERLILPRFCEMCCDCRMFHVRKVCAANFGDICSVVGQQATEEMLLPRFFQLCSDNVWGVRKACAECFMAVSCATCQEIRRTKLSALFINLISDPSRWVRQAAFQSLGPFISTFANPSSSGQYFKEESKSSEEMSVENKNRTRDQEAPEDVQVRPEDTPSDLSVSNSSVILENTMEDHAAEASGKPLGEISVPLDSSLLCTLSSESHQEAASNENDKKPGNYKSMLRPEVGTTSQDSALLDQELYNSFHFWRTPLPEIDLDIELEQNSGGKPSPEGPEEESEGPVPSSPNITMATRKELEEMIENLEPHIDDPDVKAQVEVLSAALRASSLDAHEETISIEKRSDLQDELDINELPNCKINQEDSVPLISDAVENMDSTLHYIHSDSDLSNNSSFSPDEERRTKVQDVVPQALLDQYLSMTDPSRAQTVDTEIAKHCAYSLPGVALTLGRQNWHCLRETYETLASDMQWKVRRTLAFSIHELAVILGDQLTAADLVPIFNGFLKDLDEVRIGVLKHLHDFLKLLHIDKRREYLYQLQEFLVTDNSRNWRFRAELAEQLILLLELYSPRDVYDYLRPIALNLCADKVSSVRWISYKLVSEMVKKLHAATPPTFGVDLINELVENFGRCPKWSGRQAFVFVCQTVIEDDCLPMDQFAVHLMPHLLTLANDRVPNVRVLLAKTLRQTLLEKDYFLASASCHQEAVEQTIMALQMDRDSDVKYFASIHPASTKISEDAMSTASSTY
UniProt P78527, 3336-3357: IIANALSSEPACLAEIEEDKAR
UniProt Q14738, whole entry, looked up: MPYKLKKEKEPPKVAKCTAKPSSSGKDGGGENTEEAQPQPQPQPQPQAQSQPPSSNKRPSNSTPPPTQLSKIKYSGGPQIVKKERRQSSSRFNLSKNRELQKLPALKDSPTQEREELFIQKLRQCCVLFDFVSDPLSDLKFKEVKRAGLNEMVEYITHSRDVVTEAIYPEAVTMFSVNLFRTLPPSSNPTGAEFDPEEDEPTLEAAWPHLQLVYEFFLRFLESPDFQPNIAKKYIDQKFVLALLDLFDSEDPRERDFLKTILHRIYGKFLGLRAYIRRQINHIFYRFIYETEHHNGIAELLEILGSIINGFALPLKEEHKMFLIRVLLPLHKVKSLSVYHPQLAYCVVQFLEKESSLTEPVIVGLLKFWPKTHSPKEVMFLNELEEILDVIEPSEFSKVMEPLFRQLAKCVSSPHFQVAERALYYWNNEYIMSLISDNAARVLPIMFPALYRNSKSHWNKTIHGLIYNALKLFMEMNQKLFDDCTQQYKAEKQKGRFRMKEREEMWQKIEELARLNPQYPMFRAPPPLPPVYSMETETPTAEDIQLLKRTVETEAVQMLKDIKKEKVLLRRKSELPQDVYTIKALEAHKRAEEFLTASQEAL
UniProt O95685: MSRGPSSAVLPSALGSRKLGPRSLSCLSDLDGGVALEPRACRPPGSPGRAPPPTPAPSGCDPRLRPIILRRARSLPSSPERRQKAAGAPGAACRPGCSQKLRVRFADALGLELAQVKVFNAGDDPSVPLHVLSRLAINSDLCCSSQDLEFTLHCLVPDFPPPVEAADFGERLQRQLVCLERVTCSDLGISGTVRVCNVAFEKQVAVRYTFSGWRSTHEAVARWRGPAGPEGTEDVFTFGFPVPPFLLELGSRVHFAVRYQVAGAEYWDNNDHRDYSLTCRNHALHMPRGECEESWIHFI
UniProt O43395: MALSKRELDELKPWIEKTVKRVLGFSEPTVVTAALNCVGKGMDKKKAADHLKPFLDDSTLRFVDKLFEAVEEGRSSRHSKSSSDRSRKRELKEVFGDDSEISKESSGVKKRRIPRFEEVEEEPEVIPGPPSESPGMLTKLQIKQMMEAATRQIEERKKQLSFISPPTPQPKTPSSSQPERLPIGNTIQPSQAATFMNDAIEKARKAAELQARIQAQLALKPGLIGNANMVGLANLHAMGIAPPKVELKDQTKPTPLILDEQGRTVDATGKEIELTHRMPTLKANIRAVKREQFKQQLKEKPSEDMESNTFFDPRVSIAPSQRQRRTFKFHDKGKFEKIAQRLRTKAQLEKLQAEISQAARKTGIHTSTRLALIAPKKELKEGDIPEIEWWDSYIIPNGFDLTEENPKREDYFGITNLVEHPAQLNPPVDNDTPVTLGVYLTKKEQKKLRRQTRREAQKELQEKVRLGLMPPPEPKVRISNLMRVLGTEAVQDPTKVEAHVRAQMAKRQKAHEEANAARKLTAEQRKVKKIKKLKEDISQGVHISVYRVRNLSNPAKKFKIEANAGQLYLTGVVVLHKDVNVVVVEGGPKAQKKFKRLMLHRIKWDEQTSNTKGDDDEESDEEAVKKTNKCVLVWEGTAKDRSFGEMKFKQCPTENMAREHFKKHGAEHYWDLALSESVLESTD
UniProt P49643: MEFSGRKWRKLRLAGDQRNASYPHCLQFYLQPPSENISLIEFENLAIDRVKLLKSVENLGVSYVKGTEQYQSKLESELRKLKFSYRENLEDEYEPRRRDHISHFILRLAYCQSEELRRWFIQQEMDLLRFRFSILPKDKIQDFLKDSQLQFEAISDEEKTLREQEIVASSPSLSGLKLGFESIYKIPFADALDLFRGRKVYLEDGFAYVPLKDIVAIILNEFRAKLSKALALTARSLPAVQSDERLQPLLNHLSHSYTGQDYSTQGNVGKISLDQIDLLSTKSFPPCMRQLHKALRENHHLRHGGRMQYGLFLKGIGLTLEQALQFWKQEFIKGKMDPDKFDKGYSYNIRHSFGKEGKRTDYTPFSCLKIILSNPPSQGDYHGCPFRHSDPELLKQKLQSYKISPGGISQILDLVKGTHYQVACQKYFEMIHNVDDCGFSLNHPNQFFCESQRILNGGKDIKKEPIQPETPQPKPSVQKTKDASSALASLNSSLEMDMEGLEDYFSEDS
UniProt Q9UKY4: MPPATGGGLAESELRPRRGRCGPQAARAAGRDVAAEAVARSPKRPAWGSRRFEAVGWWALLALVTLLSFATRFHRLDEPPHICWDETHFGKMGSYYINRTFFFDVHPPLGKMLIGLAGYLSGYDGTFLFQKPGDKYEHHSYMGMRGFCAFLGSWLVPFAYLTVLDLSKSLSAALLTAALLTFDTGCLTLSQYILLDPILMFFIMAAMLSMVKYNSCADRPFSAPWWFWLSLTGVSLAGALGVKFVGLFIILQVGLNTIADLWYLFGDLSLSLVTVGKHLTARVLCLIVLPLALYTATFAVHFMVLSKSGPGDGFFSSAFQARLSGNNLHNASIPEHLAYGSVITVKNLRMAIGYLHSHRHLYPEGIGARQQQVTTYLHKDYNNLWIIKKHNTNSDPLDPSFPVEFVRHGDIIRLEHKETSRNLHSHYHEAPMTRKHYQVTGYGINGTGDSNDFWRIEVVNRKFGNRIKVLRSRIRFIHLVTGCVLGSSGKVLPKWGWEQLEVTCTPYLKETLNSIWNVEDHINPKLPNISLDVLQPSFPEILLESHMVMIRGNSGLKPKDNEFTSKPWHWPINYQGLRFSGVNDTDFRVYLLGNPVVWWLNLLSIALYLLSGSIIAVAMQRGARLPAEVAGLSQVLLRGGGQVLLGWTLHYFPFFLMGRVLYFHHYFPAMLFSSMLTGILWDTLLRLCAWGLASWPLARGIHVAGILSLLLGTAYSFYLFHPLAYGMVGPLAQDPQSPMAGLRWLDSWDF
UniProt Q6P2P2: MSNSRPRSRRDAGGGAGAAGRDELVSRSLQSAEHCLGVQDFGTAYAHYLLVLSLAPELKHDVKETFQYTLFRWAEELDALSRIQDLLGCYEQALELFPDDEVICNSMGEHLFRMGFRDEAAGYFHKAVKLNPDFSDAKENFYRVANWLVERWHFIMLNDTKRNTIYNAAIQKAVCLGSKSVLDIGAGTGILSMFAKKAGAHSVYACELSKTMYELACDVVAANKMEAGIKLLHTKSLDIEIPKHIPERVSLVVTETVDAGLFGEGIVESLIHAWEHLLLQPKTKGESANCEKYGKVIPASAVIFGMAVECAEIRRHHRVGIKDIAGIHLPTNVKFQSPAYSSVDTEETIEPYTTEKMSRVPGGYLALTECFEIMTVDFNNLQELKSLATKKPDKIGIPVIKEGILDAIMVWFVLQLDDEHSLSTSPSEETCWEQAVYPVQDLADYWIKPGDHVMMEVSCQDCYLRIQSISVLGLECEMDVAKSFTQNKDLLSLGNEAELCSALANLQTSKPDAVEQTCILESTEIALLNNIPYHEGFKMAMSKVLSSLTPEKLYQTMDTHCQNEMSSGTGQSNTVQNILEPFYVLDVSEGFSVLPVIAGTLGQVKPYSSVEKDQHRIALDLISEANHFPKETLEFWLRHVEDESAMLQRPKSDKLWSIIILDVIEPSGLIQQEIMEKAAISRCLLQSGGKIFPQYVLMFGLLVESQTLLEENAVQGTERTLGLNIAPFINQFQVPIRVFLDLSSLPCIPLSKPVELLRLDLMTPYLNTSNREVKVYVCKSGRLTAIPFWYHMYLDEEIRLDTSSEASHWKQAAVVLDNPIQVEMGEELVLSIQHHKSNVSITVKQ

Compound in the first experiment: ClCC(=O)N[C@@H]1CCCc2ccccc12
In words: log2 mean competition ratio of IA-DTB cysteine labelling (DMSO/compound) (log2 ratio); higher = stronger cysteine engagement by compound. The following applies: 50 µM; treatment time: 4 h; cell line lysate: HEK293T. The method, then:
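IA-DTB competitive cysteine chemoproteomics in HEK293T RIPA lysate. Lysates were treated with compound 29 or 30 at 50 or 200 µM for 4 h, then IA-DTB (500 µM, 1 h), trypsin-digested, NeutrAvidin-enriched and analysed by diaPASEF. Competition ratio = intensity DMSO / intensity compound (n=4 treated, n=64 DMSO); binding: mean log2 CR ≥ 1 and p ≤ 0.05 plus QC filters. Target is the cysteine site.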
Consider PPP2R5E C106 (UniProt Q16537), for which the “log2 mean competition ratio” value is -0.0396.
The same measure, in the same setting: under PPP6R3 C467 (UniProt Q5H9R7) stands 0.105; under POLR2A C13, 0.46.
On the same count and under the same terms, in the case of PRCP C233 (UniProt P42785) it was 0.281; in that of PPP4R1 C566 (UniProt Q8TF05), -0.188; in that of POLR2B C1137 (UniProt P30876), -0.0939.
Same read-out and setting: under PRKDC C3347 (UniProt P78527) stands 0.0391; under PPP2R5D C17 (UniProt Q14738), 0.416.
For the target PPP1R3D C184 (UniProt O95685), the “log2 mean competition ratio” value was found to be 0.147.
With PRPF3 C651 (UniProt O43395), the “log2 mean competition ratio” value was -0.111.
Still for that read-out and setting: in the case of POLRMT C94 (UniProt O00411) it was -0.199; in that of PRPF3 C630 (UniProt O43395), 0.132.
On the same count and under the same terms, under PPP6R3 C830 (UniProt Q5H9R7) stands -0.0656; under POLR2M C115, 0.0764; under PRIM2 C111 (UniProt P49643), 0.554.
For PRKDC C2342 (UniProt P78527), the “log2 mean competition ratio” value was -0.17.
Still for that read-out and setting: in the case of PPFIBP1 C788 (UniProt Q86W92) it was 0.356.
The same measure, in the same setting: under PRPS1 C41 stands -0.192.
Regarding POMT2 C21 (UniProt Q9UKY4), the “log2 mean competition ratio” value was 0.104.
The same measure, in the same setting: under PRMT9 C290 (UniProt Q6P2P2) stands -0.243.

Staying with this experiment, now noted: 200 µM; treatment time: 4 h; cell line lysate: HEK293T.
On to PPP2R5E C106 (UniProt Q16537), for which the “log2 mean competition ratio” value was -0.178.
Same read-out and setting: in the case of PPP6R3 C467 (UniProt Q5H9R7) it was -0.262; in that of POLR2A C13, 0.671; in that of PRCP C233 (UniProt P42785), -0.52.
On to PPP4R1 C566 (UniProt Q8TF05), for which the “log2 mean competition ratio” value is 0.613.
Regarding POLR2B C1137 (UniProt P30876), the “log2 mean competition ratio” value came out at 0.224.
Regarding PRKDC C3347 (UniProt P78527), the “log2 mean competition ratio” value is -0.146.
Same read-out and setting: under PPP2R5D C17 (UniProt Q14738) stands -0.176; under PPP1R3D C184 (UniProt O95685), -0.208; under PRPF3 C651 (UniProt O43395), 0.271.
Still for that read-out and setting: under POLRMT C94 (UniProt O00411) stands -0.18; under PRPF3 C630 (UniProt O43395), 0.0581; under PPP6R3 C830 (UniProt Q5H9R7), 0.172.
The same measure, in the same setting: under POLR2M C115 stands -0.44.
PRIM2 C111 (UniProt P49643): the “log2 mean competition ratio” value worked out at 0.107.
PRKDC C2342 (UniProt P78527): the “log2 mean competition ratio” value was -0.337.
Regarding PPFIBP1 C788 (UniProt Q86W92), the “log2 mean competition ratio” value is 0.315.
For PRPS1 C41, the “log2 mean competition ratio” value was -0.502.
With POMT2 C21 (UniProt Q9UKY4), the “log2 mean competition ratio” value was 0.326.
Consider PRMT9 C290 (UniProt Q6P2P2), for which the “log2 mean competition ratio” value was -0.091.

For the origin of these results see the supplement of paper PMC11732987, “Enantioselective OTUD7B fragment discovery through chemoproteomics screening and high-throughput optimisation” (Communications Chemistry, 2025).
